Record: PubChem BioAssay AID743121 (NCATS, 2013)

- Purpose: 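Partners whose loss is lethal together with topoisomerase I blockade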 (primary screen)
- Cell system: MDA-MB-231 cells, a human breast cancer line
- Reagents: single siRNA against human genes, 20 nM siRNA (0.8 pmol per well)
- Timing: 120 h (drug added 48 h after transfection, read 72 h later)
- Challenge: camptothecin 20 nM (about EC30) for 72 h; vehicle 0.1% DMSO in parallel plates
- Read-out: 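Cell viability by ATP luminescence (CellTiter-Glo) as % of non-targeting siRNA wells, and the log2 ratio of viability without drug over viability with camptothecin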
- Scale: log2 vehicle/camptothecin viability: higher = stronger sensitisation to camptothecin; viability with camptothecin: higher = more viable cells
- Active means: 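Active genes have an RSA gene-level p-value below 0.001, computed from the ratios of their separate siRNAs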
This is one part, drawn at random, of about 26,000 deposited reagents. In the full data, 167 (0.63%) were called active. 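Calls are per gene from RSA p-values that are not deposited; an individual active-marked siRNA can sensitise only weakly.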 Unmarked entries are inactive. The numbers tell different reagents against one gene apart. Further read-outs or replicates are left out here.

Silencing of PPP1R1B (GeneID 84152) #1 gave: log2 vehicle/camptothecin viability -0.0264; viability with camptothecin (% of control) = 56.
Against PPP1R1B (GeneID 84152) #2, the entry reads log2 vehicle/camptothecin viability -0.155; viability with camptothecin (% of control) = 85.1.
After knock-down of PPP1R1B (GeneID 84152) #3, the record shows log2 vehicle/camptothecin viability -0.0992; viability with camptothecin (% of control) = 77.8.
Depletion of PPP1R1B (GeneID 84152) #4 gave: log2 vehicle/camptothecin viability 0.462; viability with camptothecin (% of control) = 30.
GABRA1 (GeneID 2554) #1 gave log2 vehicle/camptothecin viability -0.727; viability with camptothecin (% of control) = 80.4.
After knock-down of GABRA1 (GeneID 2554) #2, the record shows log2 vehicle/camptothecin viability 0.103; viability with camptothecin (% of control) = 103.
For GABRA1 (GeneID 2554) #3, the values are log2 vehicle/camptothecin viability 0.244; viability with camptothecin (% of control) = 86.2.
After knock-down of GABRA1 (GeneID 2554) #4, the screen gave log2 vehicle/camptothecin viability 0.222; viability with camptothecin (% of control) = 68.
Against PCSK5 (GeneID 5125) #1 the deposit lists log2 vehicle/camptothecin viability -0.242; viability with camptothecin (% of control) = 102.
Knock-down of PCSK5 (GeneID 5125) #2 came out at: log2 vehicle/camptothecin viability -0.207; viability with camptothecin (% of control) = 110.
PCSK5 (GeneID 5125) #3 gave log2 vehicle/camptothecin viability -0.00275; viability with camptothecin (% of control) = 81.
With knock-down of PCSK5 (GeneID 5125) #4, the record shows log2 vehicle/camptothecin viability -0.0711; viability with camptothecin (% of control) = 92.8.
With knock-down of ALOX5AP (GeneID 241) #1, the screen gave log2 vehicle/camptothecin viability -0.634; viability with camptothecin (% of control) = 91.2.
After knock-down of ALOX5AP (GeneID 241) #2, the record shows log2 vehicle/camptothecin viability -0.0763; viability with camptothecin (% of control) = 114.
ALOX5AP (GeneID 241) #3 gave log2 vehicle/camptothecin viability 0.0906; viability with camptothecin (% of control) = 95.6.
Against ALOX5AP (GeneID 241) #4 the deposit lists log2 vehicle/camptothecin viability -0.291; viability with camptothecin (% of control) = 64.1.
